In patent publication US5712367A (Rhone-Poulenc Chimie, priority 1989, dated 1998):

Assay: general procedure: solution-phase peptide synthesis
Settings: for step yield: late stage modification step

| Substance | step yield (HPLC assay after Boc cleavage) [%] | step yield (relative to the N-tert-butyloxycarbonyl-L-tyrosyl-glycyl-glycyl-L-phenylalanyl-L-leucine) [%] | crude yield (whole synthesis) [%] | isolated yield (whole synthesis) [%] | crude yield (whole synthesis, relative to the L-leucine 4(hydroxymethyl)biphenyl 3-methylbenzoate ester hydrochloride) [%] |
| --- | --- | --- | --- | --- | --- |
| L-tyrosyl-glycyl-glycyl-L-phenylalanyl-L-leucine | 100 | 92.5 | – | – | – |
| N-tert-butyloxycarbonyl-L-tyrosyl-glycyl-glycyl-L-phenylalanyl-L-leucine | – | – | 100 | 71 | 94.5 |
